The other results are listed elsewhere or left out.
Legend:
Assay in all cases: glycan array binding signal (z-score within array); higher = stronger binding
Settings in all cases: glycan notation: IUPAC condensed, linker removed
[1] = target: Kdn(a2-3)Gal(b1-4)Glc
In short: (§1)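 Arrays were curated from the Consortium for Functional Glycomics database, 3228 in total, and kept only where the protein sequence was available. Binding is expressed as a within-array Z-score. This score was averaged across arrays of the same protein sequence at different concentrations or buffers and across linkers, and negative values can be read as non-binding.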

[2] = target: Kdn(a2-3)Gal(b1-4)GlcNAc
In short: as §1

[3] = target: Kdn(a2-3)Gal(b1-4)[Fuc(a1-3)]GlcNAc
In short: as §1

[4] = target: Kdn(a2-6)Gal(b1-4)GlcNAc
In short: as §1

[5] = target: Man(a1-2)Man(a1-2)Man(a1-3)Man
In short: as §1

[6] = target: Man(a1-2)Man(a1-2)Man(a1-6)[Man(a1-3)]Man
In short: as §1

[7] = target: Man(a1-2)Man(a1-3)Man
In short: as §1

[8] = target: Man(a1-2)Man(a1-3)[Man(a1-2)Man(a1-6)]Man
In short: as §1

[9] = target: Man(a1-2)Man(a1-3)[Man(a1-2)Man(a1-6)]Man(a1-6)[Man(a1-2)Man(a1-2)Man(a1-3)]Man
In short: as §1

[10] = target: Man(a1-2)Man(a1-3)[Man(a1-2)Man(a1-6)]Man(a1-6)[Man(a1-2)Man(a1-2)Man(a1-3)]Man(b1-4)GlcNAc(b1-4)GlcNAc
In short: as §1

[11] = target: Man(a1-2)Man(a1-3)[Man(a1-6)]Man(a1-6)[Man(a1-2)Man(a1-3)]Man(b1-4)GlcNAc(b1-4)GlcNAc
In short: as §1

[12] = target: Man(a1-2)Man(a1-6)[Man(a1-3)]Man(a1-6)[Man(a1-2)Man(a1-2)Man(a1-3)]Man
In short: as §1

[13] = target: Man(a1-2)Man(a1-6)[Man(a1-3)]Man(a1-6)[Man(a1-2)Man(a1-2)Man(a1-3)]Man(b1-4)GlcNAc(b1-4)GlcNAc
In short: as §1

[14] = target: Man(a1-3)[Man(a1-6)]Man
In short: as §1

[15] = target: Man(a1-3)[Man(a1-6)]Man(a1-6)[Man(a1-2)Man(a1-3)]Man(b1-4)GlcNAc(b1-4)GlcNAc
In short: as §1

[16] = target: Man(a1-3)[Man(a1-6)]Man(a1-6)[Man(a1-3)]Man
In short: as §1

[17] = target: Man(a1-3)[Man(a1-6)]Man(a1-6)[Man(a1-3)]Man(b1-4)GlcNAc(b1-4)GlcNAc
In short: as §1

[18] = target: Man(a1-3)[Man(a1-6)]Man(b1-4)GlcNAc(b1-4)GlcNAc
In short: as §1

[19] = target: Man(a1-3)[Man(a1-6)]Man(b1-4)GlcNAc(b1-4)[Fuc(a1-6)]GlcNAc
In short: as §1

[20] = target: Man(a1-6)Man
In short: as §1

[21] = target: Man(b1-4)GlcNAc
In short: as §1

[22] = target: MurNAc(b1-4)GlcNAc
In short: as §1

[23] = target: Neu5Ac(a2-3)Gal
In short: as §1

[24] = target: Neu5Ac(a2-3)Gal(b1-3)GalNAc
In short: as §1

[25] = target: Neu5Ac(a2-3)Gal(b1-3)GalNAc(b1-3)Gal(a1-4)Gal(b1-4)Glc
In short: as §1

[26] = target: Neu5Ac(a2-3)Gal(b1-3)GalNAc(b1-4)[Neu5Ac(a2-3)]Gal(b1-4)Glc
In short: as §1

[27] = target: Neu5Ac(a2-3)Gal(b1-3)GalNAc(b1-4)[Neu5Ac(a2-8)Neu5Ac(a2-3)]Gal(b1-4)Glc
In short: as §1

[28] = target: Neu5Ac(a2-3)Gal(b1-3)GalNAc6S
In short: as §1

[29] = target: Neu5Ac(a2-3)Gal(b1-3)GlcNAc
In short: as §1

[30] = target: Neu5Ac(a2-3)Gal(b1-3)GlcNAc(b1-2)Man
In short: as §1

[31] = target: Neu5Ac(a2-3)Gal(b1-3)GlcNAc(b1-2)Man(a1-3)[GlcNAc(b1-4)][Neu5Ac(a2-3)Gal(b1-3)GlcNAc(b1-2)Man(a1-6)]Man(b1-4)GlcNAc(b1-4)GlcNAc
In short: as §1

[32] = target: Neu5Ac(a2-3)Gal(b1-3)GlcNAc(b1-2)Man(a1-3)[Neu5Ac(a2-3)Gal(b1-3)GlcNAc(b1-2)Man(a1-6)]Man(b1-4)GlcNAc(b1-4)GlcNAc
In short: as §1

[33] = target: Neu5Ac(a2-3)Gal(b1-3)GlcNAc(b1-3)Gal(b1-3)GlcNAc
In short: as §1

[34] = target: Neu5Ac(a2-3)Gal(b1-3)GlcNAc(b1-3)Gal(b1-4)GlcNAc
In short: as §1

[35] = target: Neu5Ac(a2-3)Gal(b1-3)GlcNAc(b1-3)GalNAc
In short: as §1

[36] = target: Neu5Ac(a2-3)Gal(b1-3)GlcNAc(b1-4)Gal(b1-4)Glc
In short: as §1

[37] = target: Neu5Ac(a2-3)Gal(b1-3)GlcNAc(b1-6)GalNAc
In short: as §1

[38] = target: Neu5Ac(a2-3)Gal(b1-3)GlcNAc6S
In short: as §1

B1: PX9916F-bfa-443-24-443 (Bacteroides fragilis) (protein)
chain: DIRPVGSVIPQTAEEYRALLARAYLNVPNDRGLACLRSDEMLVNDNEYDRNSYGDIERWNDVSPFPGTSQFTWSNFYNVLFIANQVIESQKEITEGTPEVVNQLVGEAHLLRAYLHFVLVNLHGQPYTKSGALNSKSIPLKLDTDLEKTLGRNTVEEVYTSILSDIEHARELINKEKWETVFSYRFNVLSVDALQSRVSLYMGAWPKCLESAEAVLAKKSVLVDMNETPLALPNHFESVESITALEQVMGSSVNNAVWVPATFLALYQEGDKRLAAYFAAPDENGNRKSSKGGKREFSCTFRVGELYLNAAEAAANMDKLPHARMRLLELMRKRYTPEAYDKKENAVNVMDKNALISEILNERARELAFEGHRWFDLRRTTRPRMVKVLQGKTYILEQDDPRYTIPIPRDAIAANPGLAN
- glycan array binding signal (z-score) [1]: 2.27
- glycan array binding signal (z-score) [2]: 0.548
- glycan array binding signal (z-score) [3]: -0.067
- glycan array binding signal (z-score) [4]: 0.665
- glycan array binding signal (z-score) [5]: 0.112
- glycan array binding signal (z-score) [6]: -0.081
- glycan array binding signal (z-score) [7]: -0.411
- glycan array binding signal (z-score) [8]: -0.925
- glycan array binding signal (z-score) [9]: -1.13
- glycan array binding signal (z-score) [10]: 2.02
- glycan array binding signal (z-score) [11]: -1.48
- glycan array binding signal (z-score) [12]: -0.785
- glycan array binding signal (z-score) [13]: -1.21
- glycan array binding signal (z-score) [14]: 1.49
- glycan array binding signal (z-score) [15]: 1.23
- glycan array binding signal (z-score) [16]: 0.08
- glycan array binding signal (z-score) [17]: 0.117
- glycan array binding signal (z-score) [18]: -0.811
- glycan array binding signal (z-score) [19]: -1.15
- glycan array binding signal (z-score) [20]: 0.387
- glycan array binding signal (z-score) [21]: 0.728
- glycan array binding signal (z-score) [22]: -1.51
- glycan array binding signal (z-score) [23]: -1.07
- glycan array binding signal (z-score) [24]: -0.724
- glycan array binding signal (z-score) [25]: 0.297
- glycan array binding signal (z-score) [26]: -0.484
- glycan array binding signal (z-score) [27]: 0.575
- glycan array binding signal (z-score) [28]: -0.423
- glycan array binding signal (z-score) [29]: -0.376
- glycan array binding signal (z-score) [30]: 4.28
- glycan array binding signal (z-score) [31]: -0.895
- glycan array binding signal (z-score) [32]: 0.484
- glycan array binding signal (z-score) [33]: 0.577
- glycan array binding signal (z-score) [34]: 0
- glycan array binding signal (z-score) [35]: -0.413
- glycan array binding signal (z-score) [36]: -0.057
- glycan array binding signal (z-score) [37]: 0.365
- glycan array binding signal (z-score) [38]: -0.62

Reference: the supplement of paper PMC8728848
